The test system of this data set is K^+ transport. Nature of the data set: K^+ transport: ^86 Rb uptake by P3 membrane fractions of whole mouse brain. It counts as biochemical, Swiss mice. To be noted: rank among the five substances.

Molecules are shown by their SMILES.

The source of these data is US4806537A (City of Hope, priority 1988, dated 1989).

With `Nc1c2ccccc2nc2ccccc12` [9-aminoacridine], the “K^+ Transport Rank Order” value is 2.

For the compound `CCN(CC)CCCC(C)Nc1ccnc2cc(Cl)ccc12` (stereo not drawn) [Chloroquine, chloroquine], the “K^+ Transport Rank Order” value worked out at 4.

Consider `CCN(CC)CCCC(C)Nc1c2ccc(Cl)cc2nc2ccc(OC)cc12` (stereo not drawn) [Quinacrine, quinacrine], for which the “K^+ Transport Rank Order” value is 3.
